{"source": "patent US7872046B2", "about": "“Crystalline form of a (3S)-aminomethyl-5-methyl-hexanoic acid prodrug and methods of use” (Xenoport, Inc., priority 2008, dated 2011)", "experiment": "Pregabalin pharmacokinetics following intracolonic administration in monkeys (Example 12)", "format": "in vivo, cynomologus monkeys", "details": "10 mg-eq PG/kg", "procedure": "The pharmacokinetics of pregabalin and crystalline calcium (3S)-{[(1R)-isobutanoyloxyethoxy]carbonylaminomethyl}-5-methyl-hexanoate hydrate following intracolonic administration in monkeys was determined.\nA group of four male cynomologus monkeys received an intracolonic dose of pregabalin or crystalline calcium (3S)-{[(1R)-isobutanoyloxyethoxy]carbonylaminomethyl}-5-methyl-hexanoate hydrate (10 mg-eq pregabalin/kg). A 7-day wash-out period was allowed between treatments. Blood samples (300 μL) were collected from all animals prior to dosing and at intervals up to 24 hours post-dosing and immediately quenched in tubes containing K2EDTA to prevent hydrolysis. Two aliquots (100 μL each) were immediately quenched with 300 μL methanol. All quenched blood samples were subsequently analyzed for (3S)-{[(1R)-isobutanoyloxyethoxy]carbonylaminomethyl}-5-methyl-hexanoate free acid and pregabalin using LC-MS/MS. […]\nCynomologus monkeys (body weight approximately 2.5 kg to 5.0 kg) were used in the study. […] Blood samples were analyzed and pharmacokinetic analysis performed as described in Example 14.\nBlood concentration data for all analytes were analyzed by non-compartmental methods using WinNonlin (WinNonlin™ Software, version 5.2, Pharsight Corp. Mountain View, Calif.). […] All concentration values below the limit of quantitation (BLQ) were treated as 0 (zero) for the pharmacokinetic analysis. […]", "note": "At least one read-out could not be matched to a standard name with certainty.", "data": [{"substance": "calcium (3S)-{[(1R)-isobutanoyloxyethoxy]carbonylaminomethyl}-5-methyl-hexanoate hydrate [(3a)]", "values": [{"measurement": "F, bioavailability of pregabalin relative to IV pregabalin at 8 mg/kg, mean (SD)", "value": "63.0 (16.3) %"}]}]}
